Here are results for eleven molecules from patent US8569504B2, “Imidazopyridine compound” (Ono Pharmaceutical Co., Ltd., priority 2009, dated 2013).

The series deals with HepG2 human liver cancer cell lines. Nature of the series: Measurement of cell toxicity using HepG2 human liver cancer cell lines (ATP, Celltiter Glo). It is filed as cell-based. To be noted: ratio of HepG2 cell toxicity (Table 2) to human chymase inhibitory activity (Table 1). On the procedure:
The cells were then exposed to the compound of the present invention and the comparative compounds for 24 hours. The compound of the present invention and the comparative compounds were dissolved with DMSO, and then diluted 100 times with culture liquid comprising L-glutamine, non-essential amino acids and 1% bovine fetal serum which were added to minimum essential medium (MEM). […] The cells were dissolved with the assay buffer in the measurement kit, and the ATP concentration released from the cells was measured based on luciferin-luciferase enzyme activity. Light emission was measured with a SpectraMax plate reader (Molecular Device).
For orientation: In ATP-based viability assays light output follows the ATP content of the culture.
As for `Cc1cccc2scc(Cn3c(SCCCC(=O)O)nc4ccccc43)c12` [Comparative Compound 1, 4-(1-((4-methylbenzothiophen-3-yl)methyl)benzimidazol-2-ylthio)butanoic acid, reference compound], the “IC10 (cell toxicity data)/IC90 (chymase inhibitory activity data)” value (“IC10 … (chymase inhibitory activity data)” for short) was found to be 54.
For the molecule `Cc1cccc2scc(Cc3c(SCCCC(=O)O)nc4ccccn34)c12` [Comparative Compound 2, 4-[3-(4-methyl-benzo[b]thiophen-3-ylmethyl)-imidazo[1,2-a]pyridin-2-ylsulfanyl]butanoic acid, reference compound], the “IC10 … (chymase inhibitory activity data)” value is recorded as 24 and the “IC50 (cell toxicity data)/IC50 (chymase inhibitory activity data)” value (shortened to “IC50 … (chymase inhibitory activity data)”) was determined as 644.
On to `O=C(O)c1ccccc1Sc1nc2ccccc2n1Cc1cccc2ccccc12` [Comparative Compound 3, 2-{[1-(1-naphthylmethyl)-1H-benzimidazol-2-yl]thio}benzoic acid, reference compound], for which the “IC10 … (chymase inhibitory activity data)” value is listed as 18 and the “IC50 … (chymase inhibitory activity data)” value was determined as 308.
For `Cc1cccc2c1c(Cn1c(Sc3ccccc3C(=O)O)nc3ccccc31)cn2C` [Comparative Compound 4, 2-([1-[(1,4-dimethyl-1H-indol-3-yl)methyl]-1H-benzimidazol-2-yl]thio)benzoic acid, reference compound], in that order: 67 and 1120.
On to `Cc1cccc2[nH]cc(Cc3c(-c4ccc5ccccc5c4C(=O)O)nc4ccccn34)c12` [Example 7, 2-[3-[(4-methyl-1H-indol-3-yl)methyl]imidazo[1,2-a]pyridin-2-yl]-1-naphthoic acid], for which the “IC10 … (chymase inhibitory activity data)” value was found to be 921 and the “IC50 … (chymase inhibitory activity data)” value was found to be 132000.
Taken in the same sequence, the figures for `Cc1ccc2nc(-c3ccccc3C(=O)O)c(Cc3cn(C)c4cccc(C)c34)n2c1` [Example 11, 2-{3-[(1,4-dimethyl-1H-indol-3-yl)methyl]-6-methylimidazo[1,2-a]pyridin-2-yl}benzoic acid] were 919 and 17391.
Taken in the same sequence, the figures for `Cc1cccc2c1c(Cc1c(-c3ccccc3C(=O)O)nc3ccccn13)cn2C` [Example 13, 2-{3-[(1,4-dimethyl-1H-indol-3-yl)methyl]imidazo[1,2-a]pyridin-2-yl}benzoic acid] were 675 and 15143.
Taken in the same sequence, the figures for `CCn1cc(Cc2c(-c3ccccc3C(=O)O)nc3ccccn23)c2c(C)cccc21` [Example 15, 2-{3-[(1-ethyl-4-methyl-1H-indol-3-yl)methyl]imidazo[1,2-a]pyridin-2-yl}benzoic acid] were 479 and 8900.
Consider `Cc1cccc2[nH]cc(Cc3c(-c4ccc5ccccc5c4C(=O)O)nc4ccc(F)cn34)c12` [Example 16, 2-{6-fluoro-3-[(4-methyl-1H-indol-3-yl)methyl]imidazo[1,2-a]pyridin-2-yl}-1-naphthoic acid], for which the “IC10 … (chymase inhibitory activity data)” value is 4833 and the “IC50 … (chymase inhibitory activity data)” value amounted to 131000.
For `Cc1c(F)ccc2[nH]cc(Cc3c(-c4ccccc4C(=O)O)nc4ccccn34)c12` [Example 19, 2-{3-[(5-fluoro-4-methyl-1H-indol-3-yl)methyl]imidazo[1,2-a]pyridin-2-yl}benzoic acid], in that order: 583 and 22455.
In the case of `Cc1cccc2c1c(Cc1c(-c3ccc4ccccc4c3C(=O)O)nc3ccccn13)cn2CCN1CCOCC1` [Example 23-(4), 2-[3-({4-methyl-1-[2-(4-morpholinyl)ethyl]-1H-indol-3-yl}methyl)imidazo[1,2-a]pyridin-2-yl]-1-naphthoic acid], the “IC10 … (chymase inhibitory activity data)” value is reported as 9875 and the “IC50 … (chymase inhibitory activity data)” value is given as 86500.
